## Library screen at single concentrations

Protein sequences, listed by entry. Tags and fused reporters are not part of them. Residues count along the entry.
UniProt P9WNZ1, whole entry: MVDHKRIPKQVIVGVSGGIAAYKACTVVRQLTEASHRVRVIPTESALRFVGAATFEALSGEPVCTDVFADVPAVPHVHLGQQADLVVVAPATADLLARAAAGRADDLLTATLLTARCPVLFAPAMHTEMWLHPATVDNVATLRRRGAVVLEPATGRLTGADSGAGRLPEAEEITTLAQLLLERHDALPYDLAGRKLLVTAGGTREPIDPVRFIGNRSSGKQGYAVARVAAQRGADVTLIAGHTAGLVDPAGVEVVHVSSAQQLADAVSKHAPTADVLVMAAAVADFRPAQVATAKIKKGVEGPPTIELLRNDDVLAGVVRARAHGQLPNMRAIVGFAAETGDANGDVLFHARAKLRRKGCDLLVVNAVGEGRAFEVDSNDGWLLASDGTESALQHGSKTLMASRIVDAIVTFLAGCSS
UniProt Q4DA54, 1-478: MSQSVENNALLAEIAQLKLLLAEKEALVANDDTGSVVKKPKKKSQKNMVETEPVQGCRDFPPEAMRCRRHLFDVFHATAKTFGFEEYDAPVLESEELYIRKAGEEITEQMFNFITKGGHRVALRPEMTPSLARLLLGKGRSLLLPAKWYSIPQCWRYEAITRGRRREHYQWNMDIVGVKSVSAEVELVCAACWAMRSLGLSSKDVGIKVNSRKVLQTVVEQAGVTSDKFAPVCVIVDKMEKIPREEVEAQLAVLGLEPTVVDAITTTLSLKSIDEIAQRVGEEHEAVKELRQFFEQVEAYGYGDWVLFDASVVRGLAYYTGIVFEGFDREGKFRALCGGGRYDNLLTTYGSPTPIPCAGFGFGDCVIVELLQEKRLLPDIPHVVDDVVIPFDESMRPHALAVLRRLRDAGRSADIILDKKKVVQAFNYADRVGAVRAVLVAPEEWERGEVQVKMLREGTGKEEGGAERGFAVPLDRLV

Each number is a percent effect as filed. The record does not define 0% and 100%; most values in the screen are far below 50% and negative numbers occur (in some assays of this library far below -100). This is an unselected part of the compounds tested. Two or more numbers in one place are separate tests of the same structure; such repeats can differ widely.

CoaBC: 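Enzyme assay of CoaBC with a phosphate dye (Biomol Green) read at 650 nm. Target: Coenzyme A biosynthesis protein CoaBC, Mycobacterium tuberculosis (UniProt P9WNZ1). Tested at 30 µM. Higher reads as stronger inhibition, judged from the few compounds that gave an IC50. Most strong results did not repeat in a second test. Size under these conditions: about 67,000 compounds, about 40 of them at 50% or above in at least one test.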
TcHisRS: 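Enzyme assay of histidyl-tRNA synthetase; the read-out is not stated. Target: Histidine-tRNA ligase, Trypanosoma cruzi CL Brener (UniProt Q4DA54). Tested at 30 µM. Direction is inferred from retests: higher values go with stronger inhibition. Size under these conditions: about 69,000 compounds, about 31 of them at 50% or above in at least one test.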

compound,CoaBC,TcHisRS
COc1ccc(F)cc1CN1CCC(O)(CN2CCCCC2)C1 (centres unmarked),1.845,11.49
c1ccc(-n2ncc(CN3CCCC(Cn4cncn4)C3)n2)cc1 (centres unmarked),-1.145,11.27
Cc1ccc(-c2cccc(CC3(C(=O)O)CCOCC3)c2)c(C)c1,-10.29,11.7
CCN(CC)CCCNC(=O)C(C)n1cc(Br)cn1 (centres unmarked),4.018,1.754
Cc1ccc(O)c(C(=O)N2CCCC2CC(=O)c2cnn(C)c2)c1 (centres unmarked),-0.8537,0.6024
O=C(Cc1n[nH]c(-c2cncc(Br)c2)n1)NCc1ccccn1,-5.861,0.4292
Cc1nc2c(c(NCCN3CCOCC3)n1)CCN(C)C2,3.679,12.12
CCc1ncc(C(=O)N2CC[C@@H]3CC[C@H](C2)N3C)cn1,9.524 and 21.36,2.762
O=C(NC[C@H]1OC[C@@H](NC(=O)C2CCCC2)[C@@H]1O)c1ccncc1,0.5894,1.493
CN(C)CCOCC1CN(Cc2ccsc2)Cc2ccnn2C1 (centres unmarked),1.931,3.825
COc1ccc(CN2C[C@H](N3CCCC3=O)[C@@H]3OCCC[C@@H]32)cc1,0.6342,3.226
COCCN1CCC2(CC1)CC(N1CCOCC1)c1cc(C)ccc12 (centres unmarked),3.448,0
c1ccc(NCc2ccsc2)c(Cn2cncn2)c1,4.839,7.563
CN(C)CC1(O)CCCN(C(=O)c2ccccc2-n2cccn2)C1 (centres unmarked),1.827,7.738
Cc1ccc(CN2CCC[C@@H]3CN(C(=O)c4ccco4)C[C@@H]32)o1,4.835,4.854
Cc1nn(C)c(C)c1CC(=O)N1CCCC(CNS(C)(=O)=O)C1 (centres unmarked),-0.8475,0.9901
O=C(O)C[C@@H]1CCN(C(=O)c2cccs2)C[C@@H]1CCN1CCCCC1,1.58,12.87
CC(C(=O)NCc1ccnc(N(C)C)c1)n1cccn1 (centres unmarked),7.731,5.325
c1cnn(-c2ccc(CCNC3CCN(C4CC4)C3)cc2)c1 (centres unmarked),2.152,6.211
Cn1ccnc1CN1CCCCC1Cn1cccn1 (centres unmarked),6.789,1.128
CC(O)CN1CCC(CN(C)Cc2cc(F)cc3cccnc23)CC1 (centres unmarked),-6.957,6.952
Cc1nccc(C2CN(Cc3cc[nH]n3)CCO2)n1 (centres unmarked),-1.944,-3.784
CCNC(=O)NC[C@H]1COCc2nc3cc(OC)ccc3n21,1.129,12.87
CC(C(=O)NCc1ccc(N2CCCCC2)nc1)n1cncn1 (centres unmarked),3.07,8.721
O=C(CC1CCCC1)NCCNCc1cccc2c1OCCO2,-2.086,12.35
CCc1cc(CN(C)C(=O)c2cc(=O)[nH]c(=O)[nH]2)on1,7.172,2.128
N#Cc1cccnc1NCCNC(=O)N1CCCSCC1,-1.066,0.8333
Cn1nc(COCC2CC2)c2c1CN(CC1CC1)CC2,1.463,12.22
COc1cccc(Cc2nnc(SCCS(C)(=O)=O)o2)c1,6.612,3.333
O=C(CC1CCCO1)NCCc1ccccc1Br (centres unmarked),-0.3968,5.172
CCOCC1CN(Cc2ccc(F)cc2)Cc2nn(C)cc21 (centres unmarked),-5.462,4.132
O=C(c1ncccn1)N1CCC[C@]2(C[C@@H](OCC3CC3)CO2)C1,6.25,6.863
Cc1ccc(F)c2c1CCCN2C(=O)c1cn(CC(=O)N(C)C)nn1,1.211,3
CCN(CC)C(CNC(=O)c1ccc(S(=O)(=O)NC)cc1)c1ccco1 (centres unmarked),2.538,5.83
Cc1ccc(CNC(=O)CN(C)CC2CCN(CCO)CC2)s1,-1.72,4.938
O=C1NCCCCC1Sc1nnc(-c2cccnc2)n1C1CC1 (centres unmarked),6.61,2.479
Cc1nnc(C(C)N2CCCN(Cc3ccc(C#N)cc3)CC2)o1 (centres unmarked),8.114,6.977
O=C(CCn1c(=O)oc2ccccc21)NCC(O)c1ccc(F)c(F)c1 (centres unmarked),-2.169,9.901
COCCN(Cc1nc2c(cnn2C)c(=O)[nH]1)C(C)COC (centres unmarked),1.842,7.918
Cc1[nH]c2ccccc2c1-c1ccnc(NCCN2CCOCC2)n1,5.606,1.887
CCOc1cc(C(=O)N2CCCC(n3nc(C)nc3C)C2)ccn1 (centres unmarked),6.003,6.936
O=C(CCc1ccsc1)N1CCC(Cc2ccc(CO)cc2)C1 (centres unmarked),-6.751,6.504
COc1ccc2oc(C(C)NC(=O)NCc3noc(C)n3)c(C)c2c1 (centres unmarked),2.545,6.024
CC(C)(CCS(C)(=O)=O)CNc1ccc2ccc(F)cc2n1,-0.1965,3.448
CC(C)c1noc(CN2CCCC2c2noc(C(C)C)n2)n1 (centres unmarked),2.194,0.5747
Cc1nn(C)cc1S(=O)(=O)NCC(c1ccccc1Cl)N1CCCC1 (centres unmarked),11.24,-1.149
O=C(NCCNc1ncccn1)C1CC(=O)N(CC2CC2)C1 (centres unmarked),-10.59,0.2907
CS(=O)(=O)NCCCNC(=O)c1cccnc1O,-3.934,-2.674
CCC(C)C(=O)NCc1cc(Br)c(OC)c(OC)c1 (centres unmarked),-2.122,12.24
COc1ccc(CN2CCC=C(C(C)NC(C)=O)C2)cc1 (centres unmarked),-0.2439,-1.961
O=C(CC1CC1)N1CCC2(CC1)CN(Cc1cccnc1)C(=O)CO2,3.765,2.404
CC(=O)c1cccc(OCCCC(=O)N(C)Cc2cscn2)c1,0.3205,3.941
COCCN1CCN(C)C2(CCN(C(=O)c3ccnnc3)CC2)C1=O,-2.748,3.226
CCc1nnc2n1CCN(C(=O)c1cc3c(F)cccc3[nH]1)C2,3.484,1.149
COCCN1Cc2ccccc2C2(CCN(C(=O)c3ccco3)CC2)C1,-15.41,11.43
CN(C)CCNC(=O)CC1CCN(c2cccnn2)CC1,-4.126,1.149
COCC(c1cccc(C(F)(F)F)c1)N(C)C(=O)c1ccncc1 (centres unmarked),0.5319,-1.141
Cc1ncsc1CN1CCn2c(COCC3CC3)cnc2C1C (centres unmarked),7.128,0
CCn1c(C)nnc1CN(C)C1CCN(Cc2nccn2C)C1 (centres unmarked),3.965,3.39
CCNC(=O)[C@@H]1C[C@@H](NC(=O)c2ccsc2)CN1CCCSC,9.208,8.04
CC(C)(C)C(=O)N1CCCC1(C(=O)N1CCCC1)c1cnccn1 (centres unmarked),-8.475,2.825
COCCN(C)C(C(=O)O)c1ccc(Cl)c(F)c1 (centres unmarked),-1.11,6.14
NCC1CCCCN1C(=O)Cc1cccc(Cl)c1 (centres unmarked),-8.448,15.52
CN1C(Cn2cccn2)C[C@@H]2CN(Cc3cccnc3)CC[C@@H]21 (some centres unmarked),0.3953,4
Cc1ccccc1CNC(C)c1ccc(OCC(=O)NC2CC2)cc1 (centres unmarked),0.3817,1.127
CCOCC(O)CN1CCN(C(=O)Cc2ccc(C)nc2)CC1 (centres unmarked),-2.128,5.703
O=C(C1CC(F)(F)C1)N1C[C@@H]2CN(Cc3ccsc3)CCO[C@@H]2C1,0.618,6.122

4 of the entries, repeated:

compound,CoaBC,TcHisRS
NCC1CCCCN1C(=O)Cc1cccc(Cl)c1 (centres unmarked),-8.448,15.52
CC(C)(C)C(=O)N1CCCC1(C(=O)N1CCCC1)c1cnccn1 (centres unmarked),-8.475,2.825
CCN(CC)CCCNC(=O)C(C)n1cc(Br)cn1 (centres unmarked),4.018,1.754
N#Cc1cccnc1NCCNC(=O)N1CCCSCC1,-1.066,0.8333

Source: ChEMBL document CHEMBL3988442, “University of Dundee, Small-Polar-MMV Screening Library” (2021).